# Assay results published in article PMC12259254.
# Amino acid sequences for entries named in this document (tags omitted). A change or cut given only in a name is not applied to a line headed by its entry.
# UniProt O43791: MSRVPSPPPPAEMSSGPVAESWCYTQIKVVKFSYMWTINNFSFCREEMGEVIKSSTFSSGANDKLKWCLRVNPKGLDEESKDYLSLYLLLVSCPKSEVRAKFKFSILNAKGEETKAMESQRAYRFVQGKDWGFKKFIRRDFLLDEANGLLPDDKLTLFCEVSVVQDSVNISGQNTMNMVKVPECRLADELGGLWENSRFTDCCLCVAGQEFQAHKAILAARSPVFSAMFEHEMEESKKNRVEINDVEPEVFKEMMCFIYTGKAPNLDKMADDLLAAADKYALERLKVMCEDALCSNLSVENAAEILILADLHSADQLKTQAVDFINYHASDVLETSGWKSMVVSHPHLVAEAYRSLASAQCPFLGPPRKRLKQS
# UniProt Q9H7D7: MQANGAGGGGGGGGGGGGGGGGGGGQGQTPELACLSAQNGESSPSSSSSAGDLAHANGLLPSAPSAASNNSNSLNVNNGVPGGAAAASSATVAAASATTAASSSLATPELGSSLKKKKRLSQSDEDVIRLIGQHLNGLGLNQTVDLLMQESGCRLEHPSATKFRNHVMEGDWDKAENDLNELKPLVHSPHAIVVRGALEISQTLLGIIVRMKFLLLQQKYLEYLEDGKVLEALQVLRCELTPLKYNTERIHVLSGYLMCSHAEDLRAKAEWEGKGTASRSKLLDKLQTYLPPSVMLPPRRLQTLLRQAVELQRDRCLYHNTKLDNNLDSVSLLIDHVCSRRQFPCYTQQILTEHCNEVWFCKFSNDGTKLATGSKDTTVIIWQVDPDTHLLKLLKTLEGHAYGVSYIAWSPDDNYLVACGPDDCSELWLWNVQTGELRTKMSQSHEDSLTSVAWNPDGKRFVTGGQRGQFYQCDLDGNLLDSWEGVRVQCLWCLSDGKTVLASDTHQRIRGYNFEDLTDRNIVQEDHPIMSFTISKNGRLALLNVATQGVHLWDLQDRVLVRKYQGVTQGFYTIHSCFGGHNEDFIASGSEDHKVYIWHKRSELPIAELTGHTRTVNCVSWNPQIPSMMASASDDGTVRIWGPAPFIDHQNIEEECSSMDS
# Results are given in words; binding and its absence hold for the method and conditions named. In cells and extracts the contact can be indirect. For part of these data: Binding calls can cover weak binding; strength is not graded here. For part of these data: Tags and fused reporters may be left off the sequences shown.
# Tests used:
# Flag-LMNB2 WT (lamin B2) = target: T1, Flag-LMNB2 WT (lamin B2) (UniProt Q03252); assay: co-IP; 293T cells transiently transfected with both tagged partners; IP buffer 50 mM Tris-HCl pH 7.4, 150 mM NaCl, 0.1% NP-40; HA/Flag/Myc agarose beads overnight at 4°C; also done in control and SPOP knockout cells
# T1 sequence: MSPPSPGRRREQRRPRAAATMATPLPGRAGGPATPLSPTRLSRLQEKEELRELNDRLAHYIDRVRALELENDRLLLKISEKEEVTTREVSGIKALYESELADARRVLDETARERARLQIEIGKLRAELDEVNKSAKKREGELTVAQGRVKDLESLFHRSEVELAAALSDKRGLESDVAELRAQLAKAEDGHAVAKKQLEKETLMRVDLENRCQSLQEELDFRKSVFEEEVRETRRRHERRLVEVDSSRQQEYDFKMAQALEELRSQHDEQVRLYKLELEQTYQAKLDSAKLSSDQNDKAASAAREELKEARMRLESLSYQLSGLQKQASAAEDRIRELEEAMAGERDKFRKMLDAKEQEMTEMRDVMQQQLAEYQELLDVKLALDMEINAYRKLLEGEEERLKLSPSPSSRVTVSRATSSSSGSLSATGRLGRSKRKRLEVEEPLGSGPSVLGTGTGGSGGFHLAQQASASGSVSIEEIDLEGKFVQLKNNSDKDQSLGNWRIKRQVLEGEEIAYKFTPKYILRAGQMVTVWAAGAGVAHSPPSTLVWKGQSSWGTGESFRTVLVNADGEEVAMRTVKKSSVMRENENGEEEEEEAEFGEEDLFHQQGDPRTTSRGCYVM
# Flag-LMNB2 ΔLTD = Flag-LMNB2 ΔLTD (UniProt Q03252); assay: as above
binding (Flag-LMNB2 WT (lamin B2)),binding (Flag-LMNB2 ΔLTD),Substance
binds,–,Myc-SPOP ΔBTB (from UniProt O43791)
no binding,–,Myc-SPOP ΔMATH (from UniProt O43791)
–,no binding,"exogenous WDR26 (WD repeat domain 26), pCMV-WDR26-3×HA-Neo (from UniProt Q9H7D7 1-661)"
